{"sequences": {"note": "By UniProt entry, the sequences of proteins in these tests, tags left out. Where a name states a change or a piece, a line headed by the entry shows the natural chain unless it says otherwise.", "UniProt Q9UNA4": "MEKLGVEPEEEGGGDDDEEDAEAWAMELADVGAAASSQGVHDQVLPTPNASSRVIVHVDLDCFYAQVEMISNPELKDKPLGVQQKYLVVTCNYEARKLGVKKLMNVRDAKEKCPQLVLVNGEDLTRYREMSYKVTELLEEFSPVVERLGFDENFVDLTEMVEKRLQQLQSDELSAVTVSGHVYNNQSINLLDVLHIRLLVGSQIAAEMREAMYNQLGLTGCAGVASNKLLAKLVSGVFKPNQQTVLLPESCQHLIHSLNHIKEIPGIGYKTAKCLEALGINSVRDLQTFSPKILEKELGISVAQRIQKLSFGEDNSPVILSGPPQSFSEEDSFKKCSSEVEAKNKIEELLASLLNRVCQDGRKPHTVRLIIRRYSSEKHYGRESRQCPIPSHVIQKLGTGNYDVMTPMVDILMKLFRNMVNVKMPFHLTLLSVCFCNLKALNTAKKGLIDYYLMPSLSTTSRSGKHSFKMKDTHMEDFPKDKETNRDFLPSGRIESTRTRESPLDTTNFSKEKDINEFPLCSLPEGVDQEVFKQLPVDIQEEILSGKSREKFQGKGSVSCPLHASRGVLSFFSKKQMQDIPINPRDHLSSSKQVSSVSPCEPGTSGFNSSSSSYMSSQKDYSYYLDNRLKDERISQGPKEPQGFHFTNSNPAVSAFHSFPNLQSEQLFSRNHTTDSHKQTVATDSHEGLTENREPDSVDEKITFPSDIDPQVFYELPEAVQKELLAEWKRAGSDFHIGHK"}, "source": "PubChem BioAssay AID588590", "about": "(National Center for Advancing Translational Sciences (NCATS), 2011)", "note": "Screen size: about 390,000 compounds; about 4,000 (1%) were called active. Inconclusive means that the source gave no clear call. Such entries were picked first, then a sample of the others. Calls follow the shape of the dose curve; as a rule, active = well fitted inhibition curve with a large enough effect; inconclusive = small, poorly fitted or top-dose-only effect, or another doubt; inactive = no such curve, though single readings can be large or run the other way. Where the call is inconclusive, the potency comes from a doubtful curve fit. Potency is read from the fitted curve at half-maximal effect."}
{"molecular_target": "DNA polymerase iota (Homo sapiens) (UniProt Q9UNA4)", "assay": "qHTS for Inhibitors of Polymerase Iota", "conditions": "Pol iota fluorescent replication assay, 10 min; series mostly up to 115 µM; activity, negative = inhibition: at the top concentration", "summary_of_the_method": "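Pol iota at 10 nM preincubated 15 min with compounds at room temperature; reaction started with fluorescent substrate, 50 nM final. Fluorescence read kinetically at 0 and 10 min; buffer-only wells as negative control.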"}
{"smiles": "O=C(Cn1ncc2c(=O)oc3ccccc3c21)Nc1cc(F)ccc1F", "activity, negative = inhibition": "inactive: -3.49%"}
{"smiles": "COc1ccc2nc(SCC(=O)N3CCN(c4ccc(F)cc4)CC3)c(C#N)cc2c1", "Potency": "inconclusive: 39.8 µM [inhibitor, single point]"}
{"smiles": "Cc1ccc(CN(c2ccc(C(=O)NCc3cccnc3)cc2)S(C)(=O)=O)cc1", "activity, negative = inhibition": "inactive: -1.3%"}
{"smiles": "O=C1CS(=O)(=O)C2(C(=O)N(Cc3cccc(F)c3)c3ccccc32)N1c1ccccc1", "note": "(stereo not drawn)", "activity, negative = inhibition": "inactive: -4.47%"}
{"smiles": "CC(=O)N(CCN(C(C)=O)c1ccccc1)c1ccccc1", "Potency": "inconclusive: 89.1 µM [inhibitor, single point]"}
{"smiles": "CC(=O)c1cccc([N+](=O)[O-])c1", "Potency": "inconclusive: 28.2 µM [inhibitor, single point]"}
{"smiles": "CNc1nc(N2CCCN(C)CC2)nc2cc(OC)c(OC)cc12", "Potency": "inconclusive: 10 µM [inhibitor, partial curve, poor fit]"}
{"smiles": "Cn1c2ccccc2c2cc(/C=C(\\NC(=O)c3ccccc3)C(=O)O)ccc21", "Potency": "inconclusive: 39.8 µM [inhibitor, single point]"}
{"smiles": "O=C(CSc1nc2nccnc2c(=O)n1CCc1c[nH]c2ccccc12)Nc1ccccc1F", "Potency": "inconclusive: 89.1 µM [inhibitor, single point]"}
{"smiles": "O=C(CSc1nc2ccccc2n1Cc1ccccc1Cl)N/N=C/c1ccccc1C(=O)O", "activity, negative = inhibition": "inactive: 4.39%"}
{"smiles": "CCc1ccccc1N(C)C(=O)c1cn(CC(C)C)c(=O)c2cc(OC)c(OC)cc12", "activity, negative = inhibition": "inactive: -0.254%"}
{"smiles": "COc1cccc2cc(-c3cc(=O)oc4ccc(OCC(C)=O)cc34)oc12", "activity, negative = inhibition": "inactive: -12.4%"}
{"smiles": "O=C(CCC(=O)N1Cc2ccccc2Oc2ncccc21)Nc1ccc(Cl)cc1", "Potency": "inconclusive: 100 µM [inhibitor, partial curve, poor fit]"}
{"smiles": "O=C(CN1C(=O)S/C(=C/c2cccs2)C1=O)N1CCCC1", "activity, negative = inhibition": "inactive: 9.86%"}
{"smiles": "CSc1ncc(CNc2cc([N+](=O)[O-])ccc2C)c(N)n1", "activity, negative = inhibition": "inactive: -0.794%"}
{"smiles": "COc1ccc2c(c1)c1c(c(=O)n(-c3ccc(F)c(Cl)c3)c(=O)n1CC(=O)N1CCCC1)n2C", "Potency": "inconclusive: 89.1 µM [inhibitor, partial curve, poor fit]"}
{"smiles": "CCOc1ccc(NC(=O)c2cc(S(=O)(=O)N3CCCCCC3)cn2C)cc1", "activity, negative = inhibition": "inactive: 24.3%"}
{"smiles": "CC(=O)N1CCc2cc(C(=O)CN3CCN(C(=O)c4ccco4)CC3)ccc21", "Potency": "inconclusive: 56.2 µM [inhibitor, partial curve, poor fit]"}
{"smiles": "Cc1nc(Nc2ccccc2O)c2oc3ccccc3c2n1", "Potency": "inconclusive: 25.1 µM [inhibitor, partial curve, poor fit]"}
{"smiles": "O=C(CSc1ncnc2[nH]ncc12)Nc1nc(-c2ccc(F)c(F)c2)cs1", "Potency": "inconclusive: 1.78 µM [inhibitor, full curve, poor fit]"}
{"smiles": "COc1ccc2c(c1)CC/C(=C/c1ccccn1)C2=O", "Potency": "inconclusive: 79.4 µM [inhibitor, partial curve, poor fit]"}
{"smiles": "COc1cc(-c2nnc(SC/C=C/c3ccccc3)n2N)cc(OC)c1OC", "Potency": "inconclusive: 79.4 µM [inhibitor, partial curve, poor fit]"}
{"smiles": "O=C(CC12CC3CC(CC(C3)C1)C2)NC(Cc1ccccc1)C(=O)O", "note": "(stereo not drawn)", "Potency": "inconclusive: 89.1 µM [inhibitor, single point]"}
{"smiles": "COc1ccc(/C=C/C(=O)c2ccc([N+](=O)[O-])o2)cc1", "Potency": "inconclusive: 3.55 µM [inhibitor, full curve, poor fit]"}
{"smiles": "CCCCn1c(SCC(=O)NCc2ccco2)nnc1-c1ccoc1C", "Potency": "inconclusive: 11.2 µM [inhibitor, partial curve, poor fit]"}
{"smiles": "CCOC(=O)c1cnc2nc(NCc3ccc(OC)c(OC)c3)[nH]n2c1=O", "Potency": "inconclusive: 12.6 µM [inhibitor, partial curve, poor fit]"}
{"smiles": "CN(Cc1ccco1)C(=O)c1ccc2c(c1)N(Cc1ccccc1F)C(=O)c1ccccc1S2", "Potency": "inconclusive: 15.8 µM [inhibitor, full curve, poor fit]"}
{"smiles": "CN(C)CCN(C(=O)CCS(=O)(=O)c1ccccc1)c1nc2cc3c(cc2s1)OCO3", "Potency": "inconclusive: 79.4 µM [inhibitor, partial curve]"}
{"smiles": "C=CCn1c(Cc2nc3ccc(Cl)cc3[nH]2)n[nH]c1=S", "Potency": "inconclusive: 1.41 µM [inhibitor, full curve, poor fit]"}
{"smiles": "CCc1ccc2[nH]c(=O)c(CN(Cc3cccs3)Cc3nnnn3Cc3ccccc3)cc2c1", "activity, negative = inhibition": "inactive: -3.74%"}
{"smiles": "CCCCCn1c(N)c(-c2nc3ccccc3s2)c2c([N+](=O)[O-])nn(CC)c(=O)c21", "activity, negative = inhibition": "inactive: 4.55%"}
{"smiles": "Cc1cc(/C=C2/SC(=S)N(c3cccc(C(F)(F)F)c3)C2=O)c(C)n1-c1cccnc1", "Potency": "inconclusive: 39.8 µM [inhibitor, single point]"}
{"smiles": "COC(=O)CCCCC1SCC(NC(=O)c2ccccc2)C1=O", "note": "(stereo not drawn)", "activity, negative = inhibition": "inactive: 24.7%"}
{"smiles": "Nc1ccc(NC(=O)c2ccccc2)c2c1C(=O)c1ccccc1C2=O", "Potency": "inconclusive: 15.8 µM [inhibitor, partial curve, poor fit]"}
{"smiles": "O=C(Nc1ccc2oc(-c3ccc(O)c(Br)c3)nc2c1)c1cc2ccccc2o1", "activity, negative = inhibition": "inactive: 25%"}
{"smiles": "Cc1ccn2c(Nc3ccc(C(C)C)cc3)c(-c3cccs3)nc2c1", "activity, negative = inhibition": "inactive: 5.31%"}
{"smiles": "Cc1onc(C(=O)N2C(C)CCCC2C)c1[N+](=O)[O-]", "note": "(stereo not drawn)", "activity, negative = inhibition": "inactive: 13.6%"}
{"smiles": "OCCN1CCN(c2nc(-c3ccccc3O)nc3ccccc23)CC1", "Potency": "inconclusive: 25.1 µM [inhibitor, full curve]"}
{"smiles": "COc1ccccc1NC(=O)c1ccc2nc(C)c(C)nc2c1", "activity, negative = inhibition": "inactive: -7.04%"}
{"smiles": "Cc1ccc(Cn2c(SCC(=O)NCc3ccco3)nc3ccsc3c2=O)cc1", "Potency": "active: 100 µM"}
{"smiles": "C[C@@H]1O[C@@H](O[C@@H]2[C@@H](O)[C@H](OCCc3ccc(O)c(O)c3)O[C@H](CO)[C@H]2OC(=O)/C=C/c2ccc(O)c(O)c2)[C@H](O)[C@H](O)[C@H]1O", "Potency": "inconclusive: 79.4 µM [inhibitor, partial curve, poor fit]"}
{"smiles": "CCOC(=O)c1ccc(N2C(=O)CC(SCC(=O)Nc3ccc(S(N)(=O)=O)cc3)C2=O)cc1", "note": "(stereo not drawn)", "Potency": "inconclusive: 44.7 µM [inhibitor, single point]"}
{"smiles": "CCOC(=O)C1=C(COC(=O)C(CC)Oc2ccccc2)NC(=O)NC1C", "note": "(stereo not drawn)", "activity, negative = inhibition": "inactive: 11.2%"}
